These are yes or no findings as the source states them, for the method shown. A result given as binding can be weak or reduced; the word gives no strength.
Biological target: Fibroblast growth factor 21 (UniProt Q9NSA1)
Assay: SPR; competition-binding assay on Biacore T200: 10 nM human β-Klotho incubated with 10 nM and 100 nM 39F7 or FGF21 in PBS, 0.1 mg/ml BSA, 0.005% Surfactant P20, 1 h at room temperature; free β-Klotho measured over amine immobilized FGF21; both purified

Protein sequences, listed by entry. Tags and fused reporters are not part of them. Lines headed by an entry give the natural chain unless they say otherwise; changes in a name come on top. Residues count along the entry.
UniProt Q9NSA1, residues 29-209: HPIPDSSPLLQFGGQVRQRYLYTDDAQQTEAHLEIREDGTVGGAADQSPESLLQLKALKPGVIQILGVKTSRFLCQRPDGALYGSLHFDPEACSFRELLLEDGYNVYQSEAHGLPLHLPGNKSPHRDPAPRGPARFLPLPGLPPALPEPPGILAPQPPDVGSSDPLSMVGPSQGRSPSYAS
UniProt Q86Z14: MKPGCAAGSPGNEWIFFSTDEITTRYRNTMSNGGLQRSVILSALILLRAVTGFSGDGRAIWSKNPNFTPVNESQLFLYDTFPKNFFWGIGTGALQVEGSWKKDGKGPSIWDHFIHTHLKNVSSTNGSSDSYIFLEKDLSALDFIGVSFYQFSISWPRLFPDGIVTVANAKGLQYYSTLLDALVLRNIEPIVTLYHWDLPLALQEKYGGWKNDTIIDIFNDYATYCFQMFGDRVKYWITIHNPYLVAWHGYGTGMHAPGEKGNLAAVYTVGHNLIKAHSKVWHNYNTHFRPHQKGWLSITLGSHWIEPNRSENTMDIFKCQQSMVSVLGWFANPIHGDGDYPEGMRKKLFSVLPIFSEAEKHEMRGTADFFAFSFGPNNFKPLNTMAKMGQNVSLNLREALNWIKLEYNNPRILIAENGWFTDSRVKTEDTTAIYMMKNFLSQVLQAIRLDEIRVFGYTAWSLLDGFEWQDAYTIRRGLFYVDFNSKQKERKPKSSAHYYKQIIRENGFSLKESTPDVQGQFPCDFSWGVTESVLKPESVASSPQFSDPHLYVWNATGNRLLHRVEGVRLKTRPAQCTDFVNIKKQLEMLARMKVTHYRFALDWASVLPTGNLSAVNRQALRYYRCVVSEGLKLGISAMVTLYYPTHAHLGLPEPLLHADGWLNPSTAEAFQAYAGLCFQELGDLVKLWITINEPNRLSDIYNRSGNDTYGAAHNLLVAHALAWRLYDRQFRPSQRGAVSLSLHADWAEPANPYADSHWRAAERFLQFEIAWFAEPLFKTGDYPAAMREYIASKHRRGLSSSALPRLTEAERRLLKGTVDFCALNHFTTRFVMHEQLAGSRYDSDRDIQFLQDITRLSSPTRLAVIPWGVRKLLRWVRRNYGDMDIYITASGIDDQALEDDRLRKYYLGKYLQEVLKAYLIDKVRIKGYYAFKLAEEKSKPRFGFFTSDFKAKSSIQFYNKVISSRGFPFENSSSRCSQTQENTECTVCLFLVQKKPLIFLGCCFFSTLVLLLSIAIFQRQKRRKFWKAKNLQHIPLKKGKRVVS

human β-Klotho (His-tagged recombinant protein of the Biacore assays) (from UniProt Q86Z14) (receptor)
binding: binds
